Test results as given in publication PMC4351826.

B1: TPL (TOPLESS) (protein, UniProt Q94AI7 1-1131)
chain: MSSLSRELVFLILQFLDEEKFKETVHKLEQESGFFFNMKYFEDEVHNGNWDEVEKYLSGFTKVDDNRYSMKIFFEIRKQKYLEALDKHDRPKAVDILVKDLKVFSTFNEELFKEITQLLTLENFRENEQLSKYGDTKSARAIMLVELKKLIEANPLFRDKLQFPTLRNSRLRTLINQSLNWQHQLCKNPRPNPDIKTLFVDHSCGPPNGARAPSPVNNPLLGGIPKAGGFPPLGAHGPFQPTASPVPTPLAGWMSSPSSVPHPAVSAGAIALGGPSIPAALKHPRTPPTNASLDYPSADSEHVSKRTRPMGISDEVNLGVNMLPMSFSGQAHGHSPAFKAPDDLPKTVARTLSQGSSPMSMDFHPIKQTLLLVGTNVGDIGLWEVGSRERLVQKTFKVWDLSKCSMPLQAALVKEPVVSVNRVIWSPDGSLFGVAYSRHIVQLYSYHGGEDMRQHLEIDAHVGGVNDISFSTPNKQLCVITCGDDKTIKVWDAATGVKRHTFEGHEAPVYSVCPHYKENIQFIFSTALDGKIKAWLYDNMGSRVDYDAPGRWCTTMAYSADGTRLFSCGTSKDGESFIVEWNESEGAVKRTYQGFHKRSLGVVQFDTTKNRYLAAGDDFSIKFWDMDAVQLLTAIDGDGGLQASPRIRFNKEGSLLAVSGNENVIKIMANSDGLRLLHTFENISSESSKPAINSIAAAAAAAATSAGHADRSANVVSIQGMNGDSRNMVDVKPVITEESNDKSKIWKLTEVSEPSQCRSLRLPENLRVAKISRLIFTNSGNAILALASNAIHLLWKWQRNERNATGKATASLPPQQWQPASGILMTNDVAETNPEEAVPCFALSKNDSYVMSASGGKISLFNMMTFKTMATFMPPPPAATFLAFHPQDNNIIAIGMDDSTIQIYNVRVDEVKSKLKGHSKRITGLAFSNVLNVLVSSGADAQLCVWNTDGWEKQRSKVLPLPQGRPNSAPSDTRVQFHQDQAHFLVVHETQLAIYETTKLECMKQWAVRESLAPITHATFSCDSQLVYASFMDATVCVFSSANLRLRCRVNPSAYLPASLSNSNVHPLVIAAHPQEPNMFAVGLSDGGVHIFEPLESEGKWGVAPPAENGSASGAPTAPSVGASASDQPQR
B2: PRMT4B (PROTEIN ARGININE … 4B) (enzyme, UniProt Q84W92 1-535)
chain: MEVSSVKKLEQLEYSLESVTDLSSSSVSSSSPAVATFSYVDGVTELRFLQSDSTHCFNFDLASAQLFKLGPVHFICVSDGSSSSEEKSFSKGVNIKFKNEKDSKDFCESFEEWRNDSVVQGSSLQNGTVSANKSKFDNKIEASSAKMYFHYYGQLLHQQNMLQDYVRTGTYYAAVMENHSDFAGRVVVDVGAGSGILSMFAAQAGAKHVYAVEASEMAEYARKLIAGNPLFADRITVIKGKVEDIELPEKADILISEPMGTLLVNERMLESYVIARDRFMTPKGKMFPTVGRIHMAPFSDEFLFIEMANKAMFWQQQNYYGVDLTPLYGSAHQGYFSQPVVDAFDPRLLVASPMFHMIDFTQMKEEDFYEIDIPLKFTASMCTRMHGLACWFDVLFDGSTVQRWLTTAPGAPTTHWYQIRCVLSQPIYVMAGQEITGRLHLIAHSAQSYTIDLTLSAKMWGPGASQGGILQSSTCKFDLKEPYYRMSQPQAYPVAQEPPLQPQPELSTQQDIQTPNDELEEELLQQLPQNPSAQL
B3: WD40 containing protein At3g63460 (protein, UniProt Q8L611 1-1104)
chain: MACIKGVGRSASVALAPDAPYMAAGTMAGAVDLSFSSSANLEIFKLDFQSDDRDLPLVGEIPSSERFNRLAWGRNGSGSEEFALGLIAGGLVDGNIDLWNPLSLIGSQPSENALVGHLSVHKGPVRGLEFNAISSNLLASGADDGEICIWDLLKPSEPSHFPLLKGSGSATQGEISFISWNRKVQQILASTSYNGTTVIWDLRKQKPIINFADSVRRRCSVLQWNPNVTTQIMVASDDDSSPTLKLWDMRNIMSPVREFTGHQRGVIAMEWCPSDSSYLLTCAKDNRTICWDTNTAEIVAELPAGNNWNFDVHWYPKIPGVISASSFDGKIGIYNIEGCSRYGVEENNFGTAPLKAPKWYKRPVGASFGFGGKLVSCHARAPAKGTSSILSEVFLHSLVTEQSLVSRTSEFEAAIENGDMTSLRGLCEKKSEETESEEEKETWGLLKIMFEEEGTSRTKLISHLGFTLPVAEKDQAVDGLSSDLNGIRLEDTAADALDLDDSNEAAAFAMDNGEDFFNNFPAKPDTPVSTSAKDFMPSDTDFSTKGEETQEMQEEEEESSDPVFDNAIQRALIVGDYKEAVDQCITANKMADALVIAHVGGTALWESTREKYLKTSSAPYMKVVSAMVNNDLRSLIYTRSHKFWKETLALLCTFAQGEQWTTLCDALASKLMAAGNTLAAVLCYICAGNVDRTVEIWSRSLANERDGRSYAELLQDLMEKTLVLALATGNKKFSASLCKLFESYAEILASQGLLTTAMKYLKVLDSGGLSPELSILRDRISLSAEPETNTTASGNTQPQSTMPYNQEPTQAQPNVLANPYDNQYQQPYTDSYYVPQVSHPPMQQPTMFMPHQAQPAPQPSFTPAPTSNAQPSMRTTFVPSTPPALKNADQYQQPTMSSHSFTGPSNNAYPVPPGPGQYAPSGPSQLGQYPNPKMPQVVAPAAGPIGFTPMATPGVAPRSVQPASPPTQQAAAQAAPAPATPPPTVQTADTSNVPAHQKPVIATLTRLFNETSEALGGARANTTKKREIEDNSRKLGALFVKLNSGDISKNAADKLAQLCQALDNNDFSTALQIQVLLTTSEWDECNFWLATLKRMMVKARQNVR
B4: MSI4 (MULTICOPY SUPPRESSOR OF IRA1 4) (protein, UniProt O22607 1-507)
chain: MESDEAAAVSPQATTPSGGTGASGPKKRGRKPKTKEDSQTPSSQQQSDVKMKESGKKTQQSPSVDEKYSQWKGLVPILYDWLANHNLVWPSLSCRWGPQLEQATYKNRQRLYLSEQTDGSVPNTLVIANCEVVKPRVAAAEHISQFNEEARSPFVKKYKTIIHPGEVNRIRELPQNSKIVATHTDSPDVLIWDVETQPNRHAVLGAANSRPDLILTGHQDNAEFALAMCPTEPFVLSGGKDKSVVLWSIQDHITTIGTDSKSSGSIIKQTGEGTDKNESPTVGPRGVYHGHEDTVEDVAFSPTSAQEFCSVGDDSCLILWDARTGTNPVTKVEKAHDADLHCVDWNPHDDNLILTGSADNTVRLFDRRKLTANGVGSPIYKFEGHKAAVLCVQWSPDKSSVFGSSAEDGLLNIWDYDRVSKKSDRAAKSPAGLFFQHAGHRDKVVDFHWNASDPWTIVSVSDDCETTGGGGTLQIWRMSDLIYRPEEEVVAELEKFKSHVMTCASKP
B5: WD40 containing protein At3g18060 (protein, UniProt Q9LV35 1-609)
chain: MELSETYACVPSTERGRGILISGNSKSDTILYTNGRSVVTLDLNNPLKVSIYGEHAYPATVARYSPNGEWIASGDVSGTVRIWGAYNDHVLKNEFKVLAGRIDDLQWSADGMRIVASGDGKGKSLVRAFMWDSGSNVGEFDGHSRRVLSCAIKPTRPFRIVTCGEDFLVNFYEGPPFKFKLSSREHSNFVNCVRFAPDGSKFITVSSDKKGIIYDGKTCEILGELSSDDGHKGSIYAVSWSPDGKQVLTVSADKSAKIWDISDNGSGSLNTTLNCPGSSGGVDDMLVGCLWQNDHIVTVSLGGTISIFSASDLDKSPFQFSGHMKNVSSLAVLKGNADYILSGSYDGLICKWMLGRGFCGKLQRTQNSQIKCFAAHEEEIVTSGYDNKISRISYKDDQCTNEESIDIGNQPKDLSLAPLSPDLLLVTFESGVVFLRDGKVVSTINLGFIVTALAVTPDGTEAVIGGQDGKLHLYSINGDSLTEEAVLERHRGAISVIRYSPDLSMFASADLNREAVVWDRVSREMKLKNMLYHSARINCLAWSPNSTMVATGSLDTCVIVYEVDKPASSRMTIKGAHLGGVYGLGFADDSHVVSSGEDACIRVWSFTPQ
B6: HDA19/HD1 (HISTONE … 19/1) (enzyme, UniProt O22446 1-501)
chain: MDTGGNSLASGPDGVKRKVCYFYDPEVGNYYYGQGHPMKPHRIRMTHALLAHYGLLQHMQVLKPFPARDRDLCRFHADDYVSFLRSITPETQQDQIRQLKRFNVGEDCPVFDGLYSFCQTYAGGSVGGSVKLNHGLCDIAINWAGGLHHAKKCEASGFCYVNDIVLAILELLKQHERVLYVDIDIHHGDGVEEAFYATDRVMTVSFHKFGDYFPGTGHIQDIGYGSGKYYSLNVPLDDGIDDESYHLLFKPIMGKVMEIFRPGAVVLQCGADSLSGDRLGCFNLSIKGHAECVKFMRSFNVPLLLLGGGGYTIRNVARCWCYETGVALGVEVEDKMPEHEYYEYFGPDYTLHVAPSNMENKNSRQMLEEIRNDLLHNLSKLQHAPSVPFQERPPDTETPEVDEDQEDGDKRWDPDSDMDVDDDRKPIPSRVKREAVEPDTKDKDGLKGIMERGKGCEVEVDESGSTKVTGVNPVGVEEASVKMEEEGTNKGGAEQAFPPKT

Biological target: T1, DRB2-Cmyc (Arabidopsis thaliana) (UniProt Q9SKN2)
T1 sequence: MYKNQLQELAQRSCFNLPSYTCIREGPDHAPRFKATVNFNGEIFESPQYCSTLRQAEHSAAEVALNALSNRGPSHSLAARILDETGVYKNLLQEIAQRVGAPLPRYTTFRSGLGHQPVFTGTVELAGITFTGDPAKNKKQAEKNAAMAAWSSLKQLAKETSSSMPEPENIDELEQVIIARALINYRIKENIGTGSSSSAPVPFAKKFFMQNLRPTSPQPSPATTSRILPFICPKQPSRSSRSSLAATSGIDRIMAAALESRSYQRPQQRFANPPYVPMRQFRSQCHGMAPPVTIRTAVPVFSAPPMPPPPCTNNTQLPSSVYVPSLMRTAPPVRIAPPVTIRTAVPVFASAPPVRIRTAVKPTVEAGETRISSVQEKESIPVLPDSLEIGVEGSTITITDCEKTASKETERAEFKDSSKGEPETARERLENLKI
Assay: affinity purification with mass spectrometry; Cmyc IP (Miltenyi columns) from 1.5 g of mixed floral tissues of the DRB2-Cmyc line, Col-0 as control; SDS-PAGE, specific bands cut, nanoLC-MS/MS

Binder | binding
B1 | binds
B2 | binds
B3 | binds
B4 | binds
B5 | binds
B6 | binds

Results are given in words; binding and its absence hold for the method and conditions named. Binding seen in cells or lysates may run through a third protein. A yes stands for co-enrichment or nearness to the bait. Other partners may have been found. Where a sequence is shown, tags or fusion partners need not be part of it.
